# Measured values published in PubChem BioAssay AID1671192 (National Center for Advancing Translational Sciences (NCATS), 2021).
# Amino acid sequences for entries named in this document (tags omitted). A change or cut given only in a name is not applied to a line headed by its entry.
# UniProt P16050: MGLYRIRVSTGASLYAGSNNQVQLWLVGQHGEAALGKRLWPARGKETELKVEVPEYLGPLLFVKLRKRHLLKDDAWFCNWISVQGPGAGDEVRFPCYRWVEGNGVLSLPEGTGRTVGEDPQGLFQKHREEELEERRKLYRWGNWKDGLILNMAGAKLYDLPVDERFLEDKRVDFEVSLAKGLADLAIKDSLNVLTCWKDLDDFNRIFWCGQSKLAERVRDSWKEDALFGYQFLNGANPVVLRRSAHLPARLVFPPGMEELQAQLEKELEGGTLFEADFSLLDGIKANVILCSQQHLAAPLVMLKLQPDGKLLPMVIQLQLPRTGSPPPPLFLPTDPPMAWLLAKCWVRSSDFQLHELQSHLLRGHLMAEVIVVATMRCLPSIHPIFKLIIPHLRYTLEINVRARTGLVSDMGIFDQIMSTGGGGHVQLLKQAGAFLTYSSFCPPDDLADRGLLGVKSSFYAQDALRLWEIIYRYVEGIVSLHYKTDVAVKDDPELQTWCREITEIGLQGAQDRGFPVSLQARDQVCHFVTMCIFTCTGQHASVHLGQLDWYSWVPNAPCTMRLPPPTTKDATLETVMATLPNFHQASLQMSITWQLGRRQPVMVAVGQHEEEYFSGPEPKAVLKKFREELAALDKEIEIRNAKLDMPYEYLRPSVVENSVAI
# This list was built around the results that the source calls inconclusive (neither active nor inactive); the mix of calls is not that of the screen. Potencies beside an inconclusive call are fits to weak or partial responses and may not hold up. The source made the active and inactive calls. The call rests on the fitted dose curve; in most records, active means well fitted curve in the direction sought with a large enough effect; inconclusive means small, poorly fitted or top-dose-only effect, or another doubt; inactive means no such curve, though single readings can be large or run the other way.
# Biological target: Polyunsaturated fatty acid lipoxygenase ALOX15 (Homo sapiens) (UniProt P16050)
# Assay: Counterscreen qHTS for inhibitors of human arachidonate 12S-lipoxygenase (ALOX12): ALOX15 Assay; on activity change, negative = inhibition: 0% is about no effect
# Conditions: purified ALOX15 enzyme activity; activity change, negative = inhibition: at 110 µM (top of the series) unless noted
# Excerpt: Assay Provider: Theodore R. Holman Ph.D.
# University of California, Santa Cruz, California
# Human lipoxygenase 12hLO is a member of the closely related lipoxygenase family of enzymes which catalyze the site-specific oxidation of arachidonic acid to various hormone precursor molecules and as such is a candidate for drug development in a variety of disease areas, such as cancer and inflammation. Inhibition of 12hLO activity was screened by utilizing arachidonic acid as a substrate. The extent of hydroperoxide product formation was measured by a secondary chromogenic reaction in which xylenol orange (XO, Sigma-Aldrich, cat. number 39,818-7) reacts with the ferric ions produced from the reaction between the hydroperoxide and ferrous ions. The Fe (III)-XO complex is characterized with red-shifted absorbance at 560 nm. A purified preparation of human 12hLO was supplied by Dr. Holman laboratory, University of California, Santa Cruz.
# An assay against arachidonate 15-lipoxygenase (ALOX15) was developed to assess selective inhibition against ALOX12. Desired compounds would show potent inhibition against ALOX12 and minimal to no inhibition against ALOX15.
# SEQUENCE No. (e.g., 1, 2, 3, etc.); PARAMETER (e.g., Cells, Incubation, Reagent, etc.); VALUE; DESCRIPTION
# 1; Enzyme; 3 uL; 40 nM ALOX15 (15hLO-1) enzyme solution dispensed in 1536-well Greiner black, clear bottom plates.
# 2; Compound; 23 nL; compounds and controls were added.
# 3; Incubate; 15 min; room temperature.
# 4; Substrate; 1 uL; 50 uM arachidonic acid (final concentration).
# 5; Incubate; 30 min; room temperature.
# 6; Reagent; 4 uL; Fe-XO solution was added to each well.
# 8; Incubation; 30 min; room temperature
# 9; Detector; absorbance; Read 1 at 405 nm absorbance using ViewLux (PerkinElmer) CCD imager.
# 10; Detector; absorbance; Read 2 at 573 nm absorbance using ViewLux (PerkinElmer) CCD imager.
# NOTES (numbers refer to sequence above)
# 1; 40 nM ALOX15 (final concentration) in buffer solution (25 mM Hepes, 0.01% Triton X-100, pH 7.5) was dispensed in columns 1, 2, 5 - 48. Column 1 is neutral (100% activity). Buffer only was dispensed in columns 3 and 4 as no enzyme negative controls. The plates were covered with metal lids with gas-exchange holes.
# 2; Compounds were pin transferred via a Kalypsys Pin Tool (Wako USA) in column 5 - 48. Control compound was transferred in column 2, titration of nordihydroguaiaretic acid (NDGA, Sigma-Aldrich, N5023) with top concentration of 10 mM in DMSO then 1:2 dilution in duplicate. Dilution factor of 23 nL into 4 uL final assay volume.
# 3; Covered assay plates were incubated for 15 min at room temperature.
# 4; Substrate was added to start the reaction; 50 uM arachidonic acid (Sigma-Aldrich, St. Louis, MO) was dispensed throughout the plate.
# 6; Chromogenic detection reagent solution (divalent iron/xylenol orange, Fe-XO) was added to each well: 200 uM xylenol orange, 300 uM ferrous ammonium sulfate prepared freshly in 50 mM sulfuric acid.
# 9, 10; Two absorbance readouts were obtained at 405 nm and at 573 nm using a ViewLux high-throughput CCD plate imager (PerkinElmer). The 573 to 405 (Read 2 / Read 1) absorbance ratio was used to compute reaction progress.
Compound,Potency,"activity change, negative = inhibition"
O=C(c1ccc(Cl)cc1)N1CC2(CCCN(Cc3ccccn3)C2)Cc2ccccc21 (stereo not given),"inconclusive: 49.4 µM [inhibitor, partial curve]",–
COCCNC(=O)c1cc(C2CC2)nc2c1c(C1CCNCC1)nn2C,"inconclusive: 19.7 µM [inhibitor, partial curve, poor fit]",–
COc1ccc(N2CC3CCC(C2)N3C(=O)c2ccc3c(c2)OCO3)cc1,–,inactive: -8.37%
CCN1CCCC2(Cc3ccccc3CN([S+](=O)([O-])c3ccccc3)C2)C1 (stereo not given),–,inactive: -25.9%
Clc1ccc(NCCN2CCCC2)cc1,"inconclusive: 56.9 µM [inhibitor, partial curve]",–
CCN1CCCCC12Cc1ccccc1CN(C(=O)CCCN(C)C)C2 (stereo not given),"inconclusive: 55.5 µM [inhibitor, partial curve]",–
O=C1NCc2ccccc2CC12CCN(Cc1ccc(Oc3ccccc3)cc1)C2 (stereo not given),"inconclusive: 55.5 µM [inhibitor, single point]",–
Cc1ccc2nc(C3CCN(Cc4ccc(-c5cccs5)cc4)CC3)[nH]c(=O)c2c1,–,inactive: -12%
CCCCCNc1ncnc2c1CN(C1CCCNCC1)C(=O)CN2C (stereo not given),"inconclusive: 155 µM [inhibitor, single point]",–
COc1cccc(O)c1CN1CCCC12Cc1ccccc1CNC2=O (stereo not given),–,inactive: -14.9%
COc1ccc2c(c1)CCCN2C1CNC1,–,inactive: -22.1% [at 233 µM]
CCc1nc2c(c(-c3ccc(OC)cc3)n1)CN(C(=O)c1ccc(C)cc1)CC2,"inconclusive: 62.2 µM [inhibitor, partial curve, poor fit]",–
CC(=O)NC1CC2(CCN(C(=O)Cc3c(C)noc3C)CC2)Oc2ccccc21 (stereo not given),–,inactive: -16.5%
CCOc1cccc(CN2CCC3(Cc4ccccc4CNC3=O)C2)c1 (stereo not given),–,inactive: -23.1%
COc1ccc(CN2CCCC23Cc2ccccc2CNC3=O)cc1 (stereo not given),"inconclusive: 19.5 µM [inhibitor, partial curve]",–
NCC(=O)N1CCC2(CC1)CN(C(=O)Cc1cccc(Cl)c1)CCO2,–,inactive: -12.9%
O=C(c1ccccc1)N1CCn2c(nnc2C2CCNCC2)C1,–,inactive: -2.91% [at 146 µM]
COc1ccc(-c2nc(C3CC3)nc3c2CCN(Cc2ccc(F)cc2)CC3)cc1,"inconclusive: 0.035 µM [inhibitor, full curve, poor fit]",–
c1ccc2c(c1)COC1(CCNC1)CN2CC1CCCC1 (stereo not given),–,inactive: 0.378% [at 146 µM]
CNCc1ccccc1OC(F)(F)F,–,inactive: -10.2% [at 146 µM]

# Looked up above.
# Under Potency, CCCCCNc1ncnc2c1CN(C1CCCNCC1)C(=O)CN2C (stereo not given) is entered as inconclusive: 155 µM [inhibitor, single point]
# Under activity change, negative = inhibition, Cc1ccc2nc(C3CCN(Cc4ccc(-c5cccs5)cc4)CC3)[nH]c(=O)c2c1 is entered as inactive: -12%

# Following part:

Compound,Potency,"activity change, negative = inhibition"
CN1CC(=O)N(C2CCCNC2)Cc2c(NCCc3ccccc3F)ncnc21 (stereo not given),–,inactive: -11%
C[S+](=O)([O-])N1CC2(CCN(C(=O)CCC(=O)O)C2)Cc2ccccc21 (stereo not given),"inconclusive: 78.4 µM [inhibitor, single point]",–
O=C(c1ccc2c(c1)OCO2)N1CCn2c(nnc2C2CCNCC2)C1,"inconclusive: 124 µM [inhibitor, single point]",–
N#Cc1cccc(CN2CCCC(c3nc4ccc(F)cc4c(=O)[nH]3)C2)c1 (stereo not given),–,inactive: -27%
CC(=O)N1Cc2ccccc2OC2(CCN([S+](C)(=O)[O-])CC2)C1,"inconclusive: 6.9 µM [inhibitor, partial curve]",–
O=C(Cc1ccccc1)NCc1nnc2n1C(C(=O)O)CC2 (stereo not given),"inconclusive: 0.0245 µM [inhibitor, full curve]",–
O=C1NCc2ccccc2CC12CCCN(Cc1ccc(Cl)cc1)C2 (stereo not given),"inconclusive: 0.698 µM [inhibitor, full curve, poor fit]",–
O=C1NCc2ccccc2CC12CCCN(Cc1ccc(F)c(Cl)c1)C2 (stereo not given),"inconclusive: 17.5 µM [inhibitor, partial curve]",–
COc1ccc(NC2CN(C(=O)OC(C)(C)C)C2)cc1,"inconclusive: 0.0359 µM [inhibitor, full curve]",–
CCc1ccc(CN2CCC3(Cc4ccccc4CNC3=O)C2)cc1 (stereo not given),"inconclusive: 0.218 µM [inhibitor, full curve, poor fit]",–
CN1CC(=O)N(C2CCCNCC2)Cc2c1ncnc2N1CCCC(O)C1 (stereo not given),–,inactive: -10.6%
O=C(c1ccccc1)N1Cc2ccccc2CC2(CCCCN2CC2CCNC2)C1 (stereo not given),"inconclusive: 139 µM [inhibitor, single point]",–
CN1CC(=O)N(C2CCCNC2)Cc2c(NCCCc3ccccc3)ncnc21 (stereo not given),"inconclusive: 78.4 µM [inhibitor, partial curve, poor fit]",–
O=C(c1ccccc1)N1CCc2nc(C3CC3)nc(-c3ccc(Cl)cc3)c2C1,"inconclusive: 87.9 µM [inhibitor, partial curve, poor fit]",–
Cc1ccc(-c2cccc(CN3CCCC(c4nc5ccc(C)cc5c(=O)[nH]4)C3)c2)c(C)c1 (stereo not given),"inconclusive: 87.9 µM [inhibitor, single point]",–
CC(C)NC(=O)N1CCCC1c1nnc2n1CCNC2 (stereo not given),"inconclusive: 0.0218 µM [inhibitor, full curve, poor fit]",–
CN1CC(=O)N(C2CCNC2)Cc2c(NC3CCCCCC3)ncnc21 (stereo not given),–,inconclusive: -41.5% [inhibitor]
O=C1NCc2ccccc2CC12CCN(Cc1ccc(F)c(Cl)c1)CC2,"inconclusive: 2.48 µM [inhibitor, full curve, poor fit]",–
O=C(O)CCC(=O)N1Cc2ccccc2CC2(CCN(CC3CCNC3)C2)C1 (stereo not given),"inconclusive: 39.3 µM [inhibitor, partial curve]",–
O=C1NCc2ccccc2CC12CCCN(Cc1ccc(F)cc1O)C2 (stereo not given),"inconclusive: 15.5 µM [inhibitor, partial curve, poor fit]",–
